Source: PubChem BioAssay AID1508597 (Cure First, 2020)
The deposit covers about 2,100 reagents; shown is a part drawn at random. 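Calls flag viability under 80% in either arm, not effects specific to rucaparib; the reference for percent is not stated.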 A number with no mark means an inactive call. Not stated in the record: the 100% reference.

Test: 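Survival screen with siRNA in ovarian cancer cells derived from patients, with or without rucaparib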 (primary screen)
Cell system: human ovarian carcinoma lines grown from tumours: OCI-P5x (papillary serous) and OCI-C5x (clear cell)
Reagents: siRNA pool against human genes, 1.25 pmol siRNA per well
Timing: 72 h or 96 h, depending on the cell culture
Challenge: rucaparib 20 µM (about IC30) or vehicle, present until read-out
Detection: 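ATP luminescence measured at 72 or 96 h according to the culture, then normalised and expressed as percent viability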
Direction: viability, normalised: higher = more viable cells remaining
Rule for the call: 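Active when normalised viability falls below 80 percent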
Calls: active = viability under 80%; inactive = viability 80% or more

For MIP (major intrinsic protein of lens fiber), rucaparib or vehicle Rucaparib, cell line OCI-C5x (clear cell), technical replicate 1 the deposit lists viability, normalised (%) = 45.5 (active).
For MIP (major intrinsic protein of lens fiber), rucaparib or vehicle Rucaparib, cell line OCI-C5x (clear cell), technical replicate 2 the deposit lists viability, normalised (%) = 50.9 (active).
With MIP (major intrinsic protein of lens fiber), rucaparib or vehicle Rucaparib, cell line OCI-C5x (clear cell), technical replicate 3 the deposit lists viability, normalised (%) = 56.2 (active).
MIP (major intrinsic protein of lens fiber), rucaparib or vehicle Rucaparib, cell line OCI-P5x (serous), technical replicate 1 scored viability, normalised (%) = 90.8.
For MIP (major intrinsic protein of lens fiber), rucaparib or vehicle Rucaparib, cell line OCI-P5x (serous), technical replicate 2, the values are viability, normalised (%) = 114.
For MIP (major intrinsic protein of lens fiber), rucaparib or vehicle Rucaparib, cell line OCI-P5x (serous), technical replicate 3 the deposit lists viability, normalised (%) = 97.8.
MIP (major intrinsic protein of lens fiber), rucaparib or vehicle Vehicle, cell line OCI-C5x (clear cell), technical replicate 1 showed viability, normalised (%) = 60 (active).
MIP (major intrinsic protein of lens fiber), rucaparib or vehicle Vehicle, cell line OCI-C5x (clear cell), technical replicate 2 scored viability, normalised (%) = 45.8 (active).
MIP (major intrinsic protein of lens fiber), rucaparib or vehicle Vehicle, cell line OCI-C5x (clear cell), technical replicate 3 scored viability, normalised (%) = 31.1 (active).
MIP (major intrinsic protein of lens fiber), rucaparib or vehicle Vehicle, cell line OCI-P5x (serous), technical replicate 1 showed viability, normalised (%) = 74.5 (active).
For MIP (major intrinsic protein of lens fiber), rucaparib or vehicle Vehicle, cell line OCI-P5x (serous), technical replicate 2, the entry reads viability, normalised (%) = 87.1.
For MIP (major intrinsic protein of lens fiber), rucaparib or vehicle Vehicle, cell line OCI-P5x (serous), technical replicate 3, the values are viability, normalised (%) = 84.8.

In a second layout: results already given
{"target gene": "MIP (major intrinsic protein of lens fiber)", "rucaparib or vehicle": "Vehicle", "cell line": "OCI-C5x (clear cell)", "technical replicate": "2", "viability, normalised (%)": "45.8 (active)"}
{"target gene": "MIP (major intrinsic protein of lens fiber)", "rucaparib or vehicle": "Vehicle", "cell line": "OCI-C5x (clear cell)", "technical replicate": "3", "viability, normalised (%)": "31.1 (active)"}
{"target gene": "MIP (major intrinsic protein of lens fiber)", "rucaparib or vehicle": "Vehicle", "cell line": "OCI-P5x (serous)", "technical replicate": "1", "viability, normalised (%)": "74.5 (active)"}
{"target gene": "MIP (major intrinsic protein of lens fiber)", "rucaparib or vehicle": "Vehicle", "cell line": "OCI-P5x (serous)", "technical replicate": "2", "viability, normalised (%)": 87.1}

Further entries:
DHX57 (DExH-box helicase 57), rucaparib or vehicle Rucaparib, cell line OCI-C5x (clear cell), technical replicate 1 showed viability, normalised (%) = 52.4 (active).
DHX57 (DExH-box helicase 57), rucaparib or vehicle Rucaparib, cell line OCI-C5x (clear cell), technical replicate 2 scored viability, normalised (%) = 36.5 (active).
For DHX57 (DExH-box helicase 57), rucaparib or vehicle Rucaparib, cell line OCI-C5x (clear cell), technical replicate 3, the values are viability, normalised (%) = 43.5 (active).
DHX57 (DExH-box helicase 57), rucaparib or vehicle Rucaparib, cell line OCI-P5x (serous), technical replicate 1 scored viability, normalised (%) = 80.8.
For DHX57 (DExH-box helicase 57), rucaparib or vehicle Rucaparib, cell line OCI-P5x (serous), technical replicate 2, the values are viability, normalised (%) = 93.1.
DHX57 (DExH-box helicase 57), rucaparib or vehicle Rucaparib, cell line OCI-P5x (serous), technical replicate 3 gave viability, normalised (%) = 75.4 (active).
With DHX57 (DExH-box helicase 57), rucaparib or vehicle Vehicle, cell line OCI-C5x (clear cell), technical replicate 1, the entry reads viability, normalised (%) = 46.8 (active).
DHX57 (DExH-box helicase 57), rucaparib or vehicle Vehicle, cell line OCI-C5x (clear cell), technical replicate 2 showed viability, normalised (%) = 60.4 (active).
With DHX57 (DExH-box helicase 57), rucaparib or vehicle Vehicle, cell line OCI-C5x (clear cell), technical replicate 3, the values are viability, normalised (%) = 59.4 (active).
For DHX57 (DExH-box helicase 57), rucaparib or vehicle Vehicle, cell line OCI-P5x (serous), technical replicate 1 the deposit lists viability, normalised (%) = 67.7 (active).
With DHX57 (DExH-box helicase 57), rucaparib or vehicle Vehicle, cell line OCI-P5x (serous), technical replicate 2 the deposit lists viability, normalised (%) = 89.
DHX57 (DExH-box helicase 57), rucaparib or vehicle Vehicle, cell line OCI-P5x (serous), technical replicate 3 gave viability, normalised (%) = 83.7.
